No constants are given. Whether binding was seen depends on the method and setting. Some entries that bind do so weakly or less than the wild type. Where a sequence is shown, tags or fusion partners need not be part of it.
Legend:
GFP-NBR1 (purified) = target: T1, GFP-NBR1 (purified) (UniProt Q14596); assay: microscopy-based protein interaction assay; GFP-NBR1 on GFP-trap beads pre-incubated with mCh-TAX1BP1; 5 µM GABARAP added afterwards and the TAX1BP1 signal followed over time; both purified
T1 sequence: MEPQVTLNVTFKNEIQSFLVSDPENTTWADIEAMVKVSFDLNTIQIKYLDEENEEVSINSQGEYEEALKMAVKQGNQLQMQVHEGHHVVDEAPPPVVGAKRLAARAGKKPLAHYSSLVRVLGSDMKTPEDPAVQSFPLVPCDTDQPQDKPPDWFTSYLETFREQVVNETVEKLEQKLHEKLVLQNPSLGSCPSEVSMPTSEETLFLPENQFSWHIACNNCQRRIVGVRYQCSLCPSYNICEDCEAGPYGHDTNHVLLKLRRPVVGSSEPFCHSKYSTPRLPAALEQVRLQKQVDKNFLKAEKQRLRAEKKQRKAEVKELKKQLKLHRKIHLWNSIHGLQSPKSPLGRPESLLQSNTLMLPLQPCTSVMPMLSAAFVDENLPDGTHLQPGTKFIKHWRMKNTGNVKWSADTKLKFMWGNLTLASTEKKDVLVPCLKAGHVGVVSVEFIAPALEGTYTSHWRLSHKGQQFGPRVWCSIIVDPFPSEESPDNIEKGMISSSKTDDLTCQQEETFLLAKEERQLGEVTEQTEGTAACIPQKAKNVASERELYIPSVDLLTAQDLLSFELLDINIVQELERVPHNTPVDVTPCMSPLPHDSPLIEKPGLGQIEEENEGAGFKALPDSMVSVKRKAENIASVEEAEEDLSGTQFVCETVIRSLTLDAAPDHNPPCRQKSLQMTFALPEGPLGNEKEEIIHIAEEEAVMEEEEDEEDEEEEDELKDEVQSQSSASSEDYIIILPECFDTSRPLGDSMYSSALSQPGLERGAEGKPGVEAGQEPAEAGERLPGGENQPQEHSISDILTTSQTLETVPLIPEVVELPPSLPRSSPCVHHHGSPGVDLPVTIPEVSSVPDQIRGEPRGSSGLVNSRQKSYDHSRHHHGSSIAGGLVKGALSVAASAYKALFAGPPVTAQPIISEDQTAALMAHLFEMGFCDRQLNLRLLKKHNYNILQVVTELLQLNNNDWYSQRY

Amino acid sequences for entries named in this document (tags omitted).
UniProt O95166: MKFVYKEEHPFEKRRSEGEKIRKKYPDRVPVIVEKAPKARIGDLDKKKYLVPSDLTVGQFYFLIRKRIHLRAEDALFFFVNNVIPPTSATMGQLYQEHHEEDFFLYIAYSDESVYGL

[1] = target: T2, NBR1 (untagged, purified) (UniProt Q14596); assay: in vitro condensation assay (fluorescence microscopy); 500 nM mCherry-p62 S403E, 250 nM NBR1, 250 nM GFP-TAX1BP1 and GABARAP (0 nM, 500 nM, 1 µM, 5 µM); SEC buffer; 1.5 µM GST-4xUB; both purified
T2 sequence: T1 sequence

GABARAP (from UniProt O95166 1-117)
binding (GFP-NBR1 (purified)): binds
binding [1]: binds
